PubChem BioAssay AID1159597 – NIAID, 2016

Test: 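Role of canonical TLR signalling genes in the human macrophage LPS response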
System: human THP-1 B5 reporter clone (monocytic leukaemia line), PMA-differentiated to macrophage-like cells
Reagent: single siRNA against human genes
Timing: LPS for 4 h before read-out; assayed 48 to 72 h after siRNA transfection
Challenge: LPS (Salmonella minnesota R595) for 4 h; concentration not given
Measured: 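TNF promoter dual luciferase ratio after 4 h LPS, given as a per-plate robust z-score, mean of replicates per siRNA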
Reading the numbers: TNF reporter z-score: higher = stronger TNF promoter activity after LPS
Rule for the call: In these data the active calls have TNF reporter z-score, replicate mean at about -1.5 or lower, or at about 1.53 or higher
Calls: active = clear shift in reporter, either direction; inactive = little shift in reporter
The deposit covers 756 reagents; below is an unselected part. 140 of them (19%) count as active. 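Calls mark clear shifts in either direction, lowered or raised; calls are per siRNA, gene-level medians over six siRNAs not deposited.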 The numbers tell different reagents against one gene apart. Not stated in the record: the amount of reagent.

SIGIRR #1 gave TNF reporter z-score, replicate mean -0.428; inactive.
Knock-down of SIGIRR #2 resulted in: TNF reporter z-score, replicate mean -0.405; inactive.
Silencing of SIGIRR #3 came out at: TNF reporter z-score, replicate mean -0.287; inactive.
SIGIRR #4 scored TNF reporter z-score, replicate mean 0.196; inactive.
Depletion of SIGIRR #5 came out at: TNF reporter z-score, replicate mean -0.434; inactive.
SIGIRR #6 scored TNF reporter z-score, replicate mean -0.238; inactive.
Against NFKBIE #1 the deposit lists TNF reporter z-score, replicate mean -0.833; inactive.
Against NFKBIE #2, the entry reads TNF reporter z-score, replicate mean -1.33; inactive.
Silencing of NFKBIE #3 gave: TNF reporter z-score, replicate mean -1.37; inactive.
For NFKBIE #4, the entry reads TNF reporter z-score, replicate mean -2.1; active.
Silencing of NFKBIE #5 resulted in: TNF reporter z-score, replicate mean -2.11; active.
For NFKBIE #6, the values are TNF reporter z-score, replicate mean -1.89; active.
With knock-down of IRAK4 #1, the screen gave TNF reporter z-score, replicate mean -0.082; inactive.
With knock-down of IRAK4 #2 the results were TNF reporter z-score, replicate mean 1.02; inactive.
For IRAK4 #3 the deposit lists TNF reporter z-score, replicate mean 0.622; inactive.
Knock-down of IRAK4 #4 gave: TNF reporter z-score, replicate mean -0.553; inactive.
IRAK4 #5 scored TNF reporter z-score, replicate mean -0.37; inactive.
For IRAK4 #6, the values are TNF reporter z-score, replicate mean 0.0448; inactive.
Knock-down of JUN #1 gave: TNF reporter z-score, replicate mean -3.29; active.
For JUN #2 the deposit lists TNF reporter z-score, replicate mean -1.39; inactive.
Against JUN #3 the deposit lists TNF reporter z-score, replicate mean -0.697; inactive.
After knock-down of JUN #4 the results were TNF reporter z-score, replicate mean -1.08; inactive.
Silencing of JUN #5 gave: TNF reporter z-score, replicate mean -0.415; inactive.
Knock-down of JUN #6 gave: TNF reporter z-score, replicate mean -1.55; active.

Reformatted: 3 of the entries above.
| Gene | siRNA no. | TNF reporter z-score, replicate mean | Call |
| --- | --- | --- | --- |
| NFKBIE | 1 | -0.833 | inactive |
| NFKBIE | 2 | -1.33 | inactive |
| NFKBIE | 3 | -1.37 | inactive |
